Experimental data taken from US20250115642A1, “PEPTIDE HAVING ANTIBACTERIAL, ANTI-INFLAMMATORY OR TISSUE REGENERATION ABILITY AND USE THEREOF” (priority 2022, published 2025).
At least one structure is not confirmed: it was looked up by name or label, or the drawing left a doubt.

System: artificial biofilm of Aggregatibacter actinomycetemcomitans and Porphyromonas gingivalis
Assay: Antibacterial activity in artificial biofilm on titanium disk (LIVE/DEAD staining)
Format: cell-based
Conditions: 1 μg/ml, 24 hours after inoculation
Protocol: Periodontitis-causing bacteria exist in the oral cavity in a form of a biofilm, and thus in order to imitate this, an artificial biofilm was created on the surface of a titanium disk using A. a. (Aggregatibacter actinomycetemcomitans) and P. g. (Porphyromonas gingivalis) bacteria. Saliva and bacteria were mixed on a titanium disk, placed in BHI liquid medium, and cultured in an anaerobic incubator at 37° C. After 72 hours, 50 μg/ml (=29 μM), 100 μg/ml (=58 μM), 250 μg/ml (=144 μM), and 500 μg/ml (=288 μM) peptides and 1 μg/ml minocycline as a positive control were inoculated. 24 hours later after inoculation, a titanium disk with biofilm formed on the surface was obtained and the biofilm was stained using the Filmtracer LIVE/DEAD Biofilm Viability Kit (Thermo Fisher, L10316). Live bacteria are stained green, and dead bacteria are stained red. The titanium disk was observed using a confocal scanning fluorescence microscope.

CN(C)c1ccc(O)c2c1C[C@H]1C[C@H]3[C@H](N(C)C)C(O)=C(C(N)=O)C(=O)[C@@]3(O)C(O)=C1C2=O [minocycline, reference compound]
killed bacteria (red) in biofilm: almost no killed bacteria (red) were observed
